From article PMC7982817
These are yes or no findings as the source states them, for the method shown. Binding seen in cells or lysates may run through a third protein. Some results given as binding are weak or reduced against the parent protein; the word gives no strength.

Sequences of proteins named here, by UniProt entry; tags and fusion partners are left off. A change or cut given only in a name is not applied to a line headed by its entry.
UniProt P29351: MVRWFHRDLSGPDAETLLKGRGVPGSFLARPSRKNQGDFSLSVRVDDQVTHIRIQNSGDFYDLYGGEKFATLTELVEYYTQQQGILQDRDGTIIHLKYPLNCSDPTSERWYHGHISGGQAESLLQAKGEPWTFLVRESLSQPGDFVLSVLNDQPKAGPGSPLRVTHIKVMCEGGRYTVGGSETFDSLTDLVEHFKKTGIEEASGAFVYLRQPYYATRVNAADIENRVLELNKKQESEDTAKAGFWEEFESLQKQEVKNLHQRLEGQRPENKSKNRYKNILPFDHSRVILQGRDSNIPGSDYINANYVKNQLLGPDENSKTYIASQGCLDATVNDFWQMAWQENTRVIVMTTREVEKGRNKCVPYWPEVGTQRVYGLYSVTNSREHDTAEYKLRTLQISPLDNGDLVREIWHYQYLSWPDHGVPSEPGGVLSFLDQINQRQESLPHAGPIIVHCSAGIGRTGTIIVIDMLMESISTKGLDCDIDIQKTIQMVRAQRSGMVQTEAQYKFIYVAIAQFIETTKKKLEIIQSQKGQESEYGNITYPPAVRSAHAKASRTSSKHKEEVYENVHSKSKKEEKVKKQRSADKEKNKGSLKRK

How the values were obtained:
[1] = target: SHP1 (mouse (endogenous in J774A.1 and BMDM)) (UniProt P29351); assay: co-IP; BMDM lysates (150 ug/lane), uninfected or L. donovani infected; antibody 1:100 overnight at 4 C, Sepharose-4B-protein-A, immunoblot; also after Neu1 overexpression and siglec-E siRNA together
[2] = target: SHP1 (mouse (endogenous in J774A.1 and BMDM)) (UniProt P29351); assay: co-IP; J774A.1 lysates (500 ug/lane), uninfected or L. donovani infected (2 h); antibody 1:100 overnight at 4 C, Sepharose-4B-protein-A, PBS washes, immunoblot; also after MALII pre-treatment, infection with neuraminidase-treated parasites, Neu1 overexpression, siglec-E siRNA or both together; IgG lane as negative control

B1: siglec-E (receptor, UniProt Q91Y57 19-467)
chain: QNPQEVFTLNVERKVVVQEGLCVLVPCNFSYLKKRLTDWTDSDPVHGFWYREGTDRRKDSIVATNNPIRKAVKETRNRFFLLGDPWRNDCSLNIREIRKKDAGLYFFRLERGKTKYNYMWDKMTLVVTALTNTPQILLPETLEAGHPSNLTCSVPWDCGWTAPPIFSWTGTSVSFLSTNTTGSSVLTITPQPQDHGTNLTCQVTLPGTNVSTRMTIRLNVSYAPKNLTVTIYQGADSVSTILKNGSSLPISEGQSLRLICSTDSYPPANLSWSWDNLTLCPSKLSKPGLLELFPVHLKHGGVYTCQAQHALGSQHISLSLSPQSSATLSEMMMGTFVGSGVTALLFLSVCILLLAVRSYRRKPARPAVVAPHPDALKVSVSQNPLVESQADDSSEPLPSILEAAPSSTEEEIHYATLSFHEMKPMNLWGQQDTTTEYSEIKFPQRTAWP
modifications: tyrosine phosphorylation (enhanced in infected macrophages), residues not stated
In the case of B1, the binding [1] is reported as “binds” and the binding [2] is reported as “binds”.
